# This is one part of the list.
# How the values were obtained:
# Assay in all cases: glycan array binding signal (z-score within array); higher = stronger binding
# Details in all cases: glycan notation: IUPAC condensed, linker removed
# [1] = tested on: Fuc(a1-3)[Gal(b1-4)]GlcNAc(b1-3)Gal(b1-3)[Fuc(a1-4)]GlcNAc
# Outline: (§1)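 From the Consortium for Functional Glycomics database, 3228 arrays were curated, keeping only those whose protein sequence was available. Binding is given as a within-array Z-score averaged across arrays sharing a protein sequence and across linkers. Negative Z-scores can be read as non-binding.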
# [2] = tested on: Fuc(a1-3)[Gal(b1-4)]GlcNAc(b1-3)Gal(b1-4)[Fuc(a1-3)]GlcNAc(b1-3)Gal(b1-4)[Fuc(a1-3)]GlcNAc
# Outline: as §1
# [3] = tested on: Fuc(a1-3)[Gal(b1-4)]GlcNAc(b1-3)Gal(b1-4)[Fuc(a1-3)]GlcNAc
# Outline: as §1
# [4] = tested on: Fuc(a1-3)[Gal(b1-4)]GlcNAc(b1-3)GalNAc
# Outline: as §1
# [5] = tested on: Fuc(a1-3)[Gal(b1-4)]GlcNAc(b1-6)GalNAc
# Outline: as §1
# [6] = tested on: Fuc(a1-3)[Gal(b1-4)]GlcNAc(b1-6)[Gal(b1-3)GlcNAc(b1-3)]Gal(b1-4)Glc
# Outline: as §1
# [7] = tested on: Fuc(a1-3)[Gal(b1-4)]GlcNAc6S
# Outline: as §1
# [8] = tested on: Fuc(a1-3)[Gal(b1-4)]GlcNAc
# Outline: as §1
# [9] = tested on: Fuc(a1-3)[Gal3S(b1-4)]GlcNAc6S
# Outline: as §1
# [10] = tested on: Fuc(a1-3)[Gal3S(b1-4)]GlcNAc
# Outline: as §1
# [11] = tested on: Fuc(a1-3)[Gal3S(b1-4)]Glc
# Outline: as §1
# [12] = tested on: Fuc(a1-3)[GalNAc(b1-4)]GlcNAc6S
# Outline: as §1
# [13] = tested on: Fuc(a1-3)[GalNAc(b1-4)]GlcNAc
# Outline: as §1
# Fuc(a1-4)GlcNAc = tested on: Fuc(a1-4)GlcNAc
# Outline: as §1
# Fuc(b1-3)GlcNAc = tested on: Fuc(b1-3)GlcNAc
# Outline: as §1
# Gal(a1-2)Gal = tested on: Gal(a1-2)Gal
# Outline: as §1
# [14] = tested on: Gal(a1-3)Gal(b1-3)GlcNAc(b1-2)Man(a1-3)[Gal(a1-3)Gal(b1-3)GlcNAc(b1-2)Man(a1-6)]Man(b1-4)GlcNAc(b1-4)GlcNAc
# Outline: as §1
# [15] = tested on: Gal(a1-3)Gal(b1-3)GlcNAc(b1-2)Man
# Outline: as §1
# [16] = tested on: Gal(a1-3)Gal(b1-3)GlcNAc(b1-3)GalNAc
# Outline: as §1
# [17] = tested on: Gal(a1-3)Gal(b1-3)GlcNAc(b1-6)GalNAc
# Outline: as §1
# Gal(a1-3)Gal(b1-3)GlcNAc = tested on: Gal(a1-3)Gal(b1-3)GlcNAc
# Outline: as §1
# [18] = tested on: Gal(a1-3)Gal(b1-3)[Fuc(a1-4)]GlcNAc(b1-2)Man(a1-3)[Gal(a1-3)Gal(b1-3)[Fuc(a1-4)]GlcNAc(b1-2)Man(a1-6)]Man(b1-4)GlcNAc(b1-4)GlcNAc
# Outline: as §1
# [19] = tested on: Gal(a1-3)Gal(b1-4)GlcNAc(b1-2)Man(a1-3)[Gal(a1-3)Gal(b1-4)GlcNAc(b1-2)Man(a1-6)]Man(b1-4)GlcNAc(b1-4)GlcNAc
# Outline: as §1
# [20] = tested on: Gal(a1-3)Gal(b1-4)GlcNAc(b1-2)Man
# Outline: as §1
# [21] = tested on: Gal(a1-3)Gal(b1-4)GlcNAc(b1-3)GalNAc
# Outline: as §1
# [22] = tested on: Gal(a1-3)Gal(b1-4)GlcNAc(b1-6)GalNAc
# Outline: as §1
# Gal(a1-3)Gal(b1-4)GlcNAc = tested on: Gal(a1-3)Gal(b1-4)GlcNAc
# Outline: as §1
# Gal(a1-3)Gal(b1-4)Glc = tested on: Gal(a1-3)Gal(b1-4)Glc
# Outline: as §1
# [23] = tested on: Gal(a1-3)Gal(b1-4)[Fuc(a1-3)]GlcNAc(b1-2)Man(a1-3)[Gal(a1-3)Gal(b1-4)[Fuc(a1-3)]GlcNAc(b1-2)Man(a1-6)]Man(b1-4)GlcNAc(b1-4)GlcNAc
# Outline: as §1
# [24] = tested on: Gal(a1-3)Gal(b1-4)[Fuc(a1-3)]GlcNAc
# Outline: as §1
# Gal(a1-3)GalNAc = tested on: Gal(a1-3)GalNAc
# Outline: as §1
# Gal(a1-3)Gal = tested on: Gal(a1-3)Gal
# Outline: as §1
substance,measurement,setting,value
MpAFP RI GFP (Marinomonas primoryensis),glycan array binding signal (z-score),[1],0.725
same,glycan array binding signal (z-score),[2],-0.048
same,glycan array binding signal (z-score),[3],0.341
same,glycan array binding signal (z-score),[4],-0.127
same,glycan array binding signal (z-score),[5],-0.034
same,glycan array binding signal (z-score),[6],0.087
same,glycan array binding signal (z-score),[7],1.46
same,glycan array binding signal (z-score),[8],-0.299
same,glycan array binding signal (z-score),[9],-0.26
same,glycan array binding signal (z-score),[10],-0.585
same,glycan array binding signal (z-score),[11],-0.612
same,glycan array binding signal (z-score),[12],-0.258
same,glycan array binding signal (z-score),[13],0.371
same,glycan array binding signal (z-score),Fuc(a1-4)GlcNAc,0.716
same,glycan array binding signal (z-score),Fuc(b1-3)GlcNAc,0.355
same,glycan array binding signal (z-score),Gal(a1-2)Gal,-0.305
same,glycan array binding signal (z-score),[14],0.574
same,glycan array binding signal (z-score),[15],-0.538
same,glycan array binding signal (z-score),[16],-0.383
same,glycan array binding signal (z-score),[17],-0.768
same,glycan array binding signal (z-score),Gal(a1-3)Gal(b1-3)GlcNAc,-0.702
same,glycan array binding signal (z-score),[18],2.56
same,glycan array binding signal (z-score),[19],0.155
same,glycan array binding signal (z-score),[20],-0.409
same,glycan array binding signal (z-score),[21],-0.564
same,glycan array binding signal (z-score),[22],-0.171
same,glycan array binding signal (z-score),Gal(a1-3)Gal(b1-4)GlcNAc,-0.748
same,glycan array binding signal (z-score),Gal(a1-3)Gal(b1-4)Glc,-0.137
same,glycan array binding signal (z-score),[23],1.33
same,glycan array binding signal (z-score),[24],-0.5
same,glycan array binding signal (z-score),Gal(a1-3)GalNAc,-0.245
same,glycan array binding signal (z-score),Gal(a1-3)Gal,-0.551

# Reprinted from the results shown for reference:
substance,measurement,setting,value
MpAFP RI GFP (Marinomonas primoryensis),glycan array binding signal (z-score),[23],1.33
same,glycan array binding signal (z-score),[24],-0.5
